Measured values as given in the supplement of paper PMC3334620.
Whole data set: some 33,000 sequences, median “E-score (-0.5 to 0.5)” near -0.016, cut for the highest 2% near 0.3. Some of the results follow.

Molecular target: T1, Yer184c (UniProt P39961)
T1 sequence: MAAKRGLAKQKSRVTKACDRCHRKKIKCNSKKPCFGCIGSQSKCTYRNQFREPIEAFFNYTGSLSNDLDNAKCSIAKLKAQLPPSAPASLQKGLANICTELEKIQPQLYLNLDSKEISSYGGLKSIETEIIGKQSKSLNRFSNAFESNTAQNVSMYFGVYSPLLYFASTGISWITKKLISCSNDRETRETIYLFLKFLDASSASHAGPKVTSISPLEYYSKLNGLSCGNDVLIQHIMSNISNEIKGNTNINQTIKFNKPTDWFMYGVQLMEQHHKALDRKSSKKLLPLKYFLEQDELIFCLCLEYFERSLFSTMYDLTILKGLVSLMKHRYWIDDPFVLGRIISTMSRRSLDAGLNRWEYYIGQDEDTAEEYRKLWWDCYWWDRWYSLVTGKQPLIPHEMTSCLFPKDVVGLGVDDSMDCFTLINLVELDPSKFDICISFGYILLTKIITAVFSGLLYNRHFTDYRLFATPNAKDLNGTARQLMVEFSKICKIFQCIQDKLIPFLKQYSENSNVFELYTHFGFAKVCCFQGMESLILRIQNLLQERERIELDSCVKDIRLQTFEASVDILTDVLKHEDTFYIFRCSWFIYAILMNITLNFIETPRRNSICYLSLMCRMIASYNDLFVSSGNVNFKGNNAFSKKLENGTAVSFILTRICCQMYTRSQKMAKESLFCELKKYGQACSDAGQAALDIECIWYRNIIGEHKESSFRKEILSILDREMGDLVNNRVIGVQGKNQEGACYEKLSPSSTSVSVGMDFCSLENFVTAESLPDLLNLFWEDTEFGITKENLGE
Test: PBM E-score (8-mer binding enrichment) (E-score (-0.5 to 0.5)); higher = stronger / more preferred TF binding
Conditions: protein concentration: 100 nM; construct: GST-full length
Outline: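 Yeast transcription factors carrying a GST tag, as full-length proteins or DNA-binding domains, were produced by PURExpress in vitro transcription/translation. About 100-200 nM protein was applied to universal all-10-mer Agilent arrays, double-stranded by primer extension on fresh or once-stripped slides. Bound protein was detected with fluorescent anti-GST, and scans were normalised with masliner. The Universal PBM Analysis Suite gave each ungapped eight-base word, pooled with its reverse complement, an E-score, a modified Wilcoxon-Mann-Whitney statistic.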

Sequence	PBM E-score
AGCCAGAG	0.00372
ACGCCGGG	0.21
AGATCATG	-0.112
ACCCAGCT	-0.234
CCTGTCTC	-0.124
AAGTGCAC	-0.0762
AATAATAC	0.232
GCGACTTA	-0.115
ACACGCTA	-0.0608
AGTCATGA	0.0426
CGATAAAG	-0.00214
CTCCGTAC	-0.045
GTGAGTAA	0.0124
ATTAAATC	0.231
ATTGATTA	0.221
GTATAATA	0.251
GTCCTAAA	0.109
ACCGGGGG	-0.0716
ACGTCGCC	-0.194
TACAGGCA	-0.0164
GTGTACAC	-0.0204
CGTGTTAC	-0.0082
AGGGCATA	-0.0471
CCGCGCTA	0.18
ATCCTCTG	-0.181

Sequence	PBM E-score
AATTGCAT	0.0867
CTAGATAA	0.0124
CGAAGTAA	0.13
GCGATACA	0.0282
ATGGCCCC	-0.162
ATATCAAT	0.174
ACATCTGA	-0.135
ACGTGTAT	-0.15
AACACTAG	-0.0603
ATACGGCA	0.235
ATACTAGA	0.223
CGCGGGTA	0.0447
AACGACTG	-0.189
TTCCAAAA	0.107
AGCTGCAT	-0.16
CACCTACG	-0.194
AAATTTCC	0.261
AGTAGGAT	-0.0173
ATGAGTTA	-0.0323
CAGTGGCA	-0.104
CAGAATTA	0.126
AGGGATGA	-0.133
ACAAATGT	0.101
CAGCAAGG	-0.203
GAGGAAGA	0.00205

Sequence	PBM E-score
GTTCCATA	-0.0744
ATTCACTA	0.133
TATATCGA	0.161
GAGCGGAC	-0.168
CTCGCGTA	-0.07
GATGTGGC	-0.206
GTGTACCA	-0.183
CCAGGACC	-0.141
CGAAAGCA	0.194
GACTTCTC	-0.0341
CATTGTCA	0.137
ATAGGGTC	-0.253
AGGTAGAC	-0.0667
CCAACCCC	-0.149
ACCATTAC	0.0181
CAACGTGG	-0.0647
TGCACCCA	-0.0602
CGAGGCCC	-0.108
GGACAACC	0.0118
CCAACGTA	-0.105
ATCCATGC	0.0158
CCCTGAGA	-0.304
ACTGTGCC	0.0218
GGTTTAGA	0.0607
AAGATCCG	0.091

Sequence	PBM E-score
CTAACGAC	-0.196
CGTAAGAC	-0.152
TAGTATAA	0.226
GCGTCCCA	-0.117
AAAGCCCT	-0.236
ATCTGGGG	-0.344
TGAAACAA	0.157
TACGCAGA	0.0761
AACCTCCG	0.129
ATCACCTC	-0.0189
GTAGGGGA	-0.212
GAATAAAC	0.0606
ATGCCAAT	-0.0596
AGCGTCCC	-0.144
ACGCGACT	-0.246
GCGTGGTA	0.0701
ACGAGGAA	0.0257
ACTCCTGC	-0.00504
AAGCAGAG	-0.0501
ATCTCGGG	0.219
GCAGACCA	-0.0675
ACGCGACA	-0.0168
GCACTTTA	0.046
CATCTTAG	0.011
GTTTACCA	0.0331

Sequence	PBM E-score
ATCGATAG	-0.0102
ATGCGACC	0.142
CGACTACC	-0.248
GCATCCAA	-0.165
CTTGTTAC	0.0352
ATGGTTAA	0.0016
AAGGCCTT	-0.281
CCGTCGCA	-0.00654
CAATACGG	-0.104
CATTCGGG	0.141
AGCAAGTG	-0.246
GCGCGTCA	-0.138
CCGTCTCA	0.0903
ACTAGCTC	-0.00649
CATGAAGG	-0.0242
AATTTATA	0.24
ATTGGAGG	-0.178
CAGTGCGA	-0.2
CCGAAGCC	0.143
AGCTGATG	0.0448
CCGGACTC	0.341
CAGTACAG	0.017
AATCCCCT	-0.283
AATTAGTC	0.145
GCCCAACA	-0.205

Sequence	PBM E-score
CAGGCTTC	0.0429
ATCCTAGA	-0.0128
AGGGTACG	-0.107
ACAGTAGA	0.0645
CAGTAGGG	-0.381
ATAGTCGG	-0.039
GGCGCGGA	0.109
ACGTCCCC	-0.26
AGTGTGAC	-0.238
CGGCTCAC	0.183
CCGGGGAA	0.267
CGCGAGCC	-0.032
AATGGAAA	-0.00326
GCAGAGAA	0.136
GCCGGTCC	0.148
GATTATAA	0.204
ACTGGTCA	-0.0508
ATTGAGAG	0.122
AGCGGTAC	-0.192
AAAGGATA	0.195
AAGGGCAT	-0.236
AGTCCGAT	0.19
AATCACAA	-0.0485
GTCTCAAC	-0.0423
GTGATGTA	0.0285

Copied from the list:
Entry for ATTGAGAG under PBM E-score: 0.122
Entry for ATCCTAGA under PBM E-score: -0.0128
Entry for AAGGGCAT under PBM E-score: -0.236
Entry for CAGGCTTC under PBM E-score: 0.0429
Entry for CAGTAGGG under PBM E-score: -0.381
Entry for AGTCCGAT under PBM E-score: 0.19
Entry for ACAGTAGA under PBM E-score: 0.0645

(continued)

Sequence	PBM E-score
GGGAGACC	-0.229
AACCCGCC	-0.0413
CTCACGCC	-0.0549
GTACAGAA	0.21
CACACTGA	-0.244
ATATAGGG	-0.141
GTCGCCCA	-0.197
CTACTACC	-0.031
TGCCTTAA	-0.129
ACACGTAA	0.0614
GGTTAAAA	0.0951
TTCTCCAA	0.0459
GCAAGGCC	0.0339
CGCTAACG	0.21
CCTAAACA	-0.0297
ATATCCAA	0.132
CCGAGCGC	0.361
AATTGTTC	0.269
TAGTCTAA	-0.101
CGTGGGTA	-0.0914
CTTGTCAC	-0.0615
CTGAGTCC	-0.0833
AGATGTGG	-0.116
AGCATGAC	-0.156
AATCGATC	-0.025

Sequence	PBM E-score
GCAAGTAC	0.0411
GAAAGGGC	-0.192
AAGACAAG	0.143
GGAGGGGA	-0.0719
GCCAACAA	-0.0403
CCAGCAAG	-0.126
CCTATGCC	-0.294
CACGGCCA	0.131
TGCGGTAA	0.169
GAGGTAGC	-0.25
ACAAAACG	0.143
AATAGTGT	0.267
CGGTCACA	0.0721
ACCGGTCC	0.165
AGCAGACC	0.123
AAGTCGTG	-0.0777
GACTAACA	0.101
CCTCTGTA	-0.107
TACCCCCA	-0.355
CGTGCTGA	0.0635
AGCCTTAC	-0.221
AACCTAGG	0.0109
GCCGGGAA	0.331
AAACGACG	0.0813
CAGCATCC	-0.13

Sequence	PBM E-score
CCGAGGGC	0.26
GATCCTGA	1e-05
CCGACGAG	0.133
CGGGGCAG	-0.0305
CTTGAATC	0.0357
CTGGAGGA	-0.28
CAAGATCC	0.116
GAGAACTA	0.0553
CACCCAAG	-0.119
TCATAGCA	-0.0252
AAGCAACG	0.0553
GAACCGCA	0.235
AACCTAGA	0.0403
ATGACTGA	-0.0291
CTAGTGGA	-0.246
AATGCTAC	0.0624
CGCATTCA	0.205
GTCTCTTA	0.126
AGAGGGCA	-0.208
GCGCCCAC	-0.0818
ACGAAACT	0.0515
ATTCGTCC	0.289
ATATACGA	-0.0964
CGCAGCGC	0.0137
ACATGTCT	-0.137

Sequence	PBM E-score
ATAGCGAC	-0.174
AAAGTGAG	0.0693
ATCAACCA	-0.0435
CCGAGCCG	0.352
CCGGTTAC	0.236
ATGATCAA	0.154
GGTCCTAC	-0.166
TATTGAAA	0.143
GCTGATCA	0.0248
ATTGCCCG	-0.0614
ATTCTTGA	0.0607
CATGGCAG	0.00514
AGCGCTGA	0.131
CCGCAACA	0.0725
CGCATCAG	0.0929
CCGTTCTA	0.221
TGAAGGAA	0.0504
CGCGCCAA	0.149
ACGGGTCG	0.0501
ATATCACC	0.093
ATTTAATG	0.289
ATGTAGCC	-0.275
ACATTGGA	-0.205
AGAGCCGC	0.0235
ACGAAGCT	-0.0235

Sequence	PBM E-score
AAAGGCTT	-0.112
AATGTTGA	-0.107
TGATAGAA	-0.0483
GATTCTTA	0.268
AAGTGCTG	-0.0493
GTATATTA	0.0582
ACTCATTC	0.172
CGCTATCC	-0.0319
AGGTCTAC	-0.132
TCTCCAAA	0.0658
AACAACCC	-0.0615
CTGTCCTA	-0.109
GATTCGTA	0.125
ATTCGTGC	0.133
CATCGAAG	-0.0421
AATTCTGG	0.0637
ACTCTAAG	-0.232
CGATTGCA	0.147
ACTAGTCG	-0.123
CCCCTTAG	-0.178
ATCAGGGA	-0.288
AAGTTGGC	-0.126
ATGCTATG	-0.117
GCTGTTCC	0.0109
ATCTAGTA	0.189

Sequence	PBM E-score
GTCCGTAA	0.142
CCGGAGAA	0.292
CGTGTGAC	-0.00774
GCCATCCA	-0.043
GCACTCGA	-0.0583
CCTTGGCG	-0.112
CGAATAGA	-0.0142
ACTTATTA	-0.0167
CATAAGCG	-0.169
ACCAGTTC	-0.0613
GAGCTTAA	0.0203
CCGGTACG	-0.00725
CTTCCACC	-0.17
AGGAGTAA	-7e-05
CTCATTAC	0.0262
TCCGCCAA	0.071
GTTTACAA	0.178
GGCATGCA	0.0578
ACTTGCTG	-0.0247
ACGGCCTC	-0.0417
AACCCTAC	-0.304
ATTATACG	0.217
ATGGACCC	-0.132
GGCTCGTA	0.0416
CAGAGTGC	-0.143

Sequence	PBM E-score
CCCACCCC	-0.129
AGCCTCTA	-0.313
ACATCTTG	-0.222
AGATATTC	0.0187
AATAAACG	0.209
CATGTGTA	0.0748
AGGCCAAG	-0.186
AGGAGCAC	-0.0852
AACAGGGA	0.125
CGAATGCA	0.0594
AAGGGATC	-0.0503
AGTCCAGA	-0.0108
AGGAGCTA	-0.239
CGGAGATA	0.406
ATCCCGTA	0.103
CAGCACCG	-0.0279
ACAAATAC	0.133
ATCGGGAC	-0.0229
CGTCTCCA	0.0836
CCAGACAA	-0.0151
TAACCCGA	0.128
TACTACGA	0.0607
TCCTCTAA	-0.0559
TAGGGTGA	-0.104
CTACCCTA	-0.259

Sequence	PBM E-score
CTGAAGAC	-0.0547
CCGAGTAA	0.302
ACGACTTA	-0.212
GGTCACAC	-0.149
GACTGCAC	-0.133
ACGAAATC	0.0389
GAACATGC	-0.086
CAATCGCC	0.0488
AGCGATCG	-0.0963
AATTCAAT	0.107
ATCAGCAC	0.08
AGTCGAAC	-0.00875
CGCAAATA	0.144
CCCTCACC	-0.284
GGGCGTCA	-0.15
GCCGCCAA	0.0315
GATTTCAC	0.138
AAGAGGGG	-0.245
CCGCGTCG	0.0671
